Results are given in words; binding and its absence hold for the method and conditions named. Binding seen in cells or lysates may run through a third protein. Some binding calls cover weakened binding; strength is not graded here. Tags and fused reporters may be left off the sequences shown.
Target: T1, Drosophila Trabid-V5 (D. melanogaster), Q9VH90
T1 chain: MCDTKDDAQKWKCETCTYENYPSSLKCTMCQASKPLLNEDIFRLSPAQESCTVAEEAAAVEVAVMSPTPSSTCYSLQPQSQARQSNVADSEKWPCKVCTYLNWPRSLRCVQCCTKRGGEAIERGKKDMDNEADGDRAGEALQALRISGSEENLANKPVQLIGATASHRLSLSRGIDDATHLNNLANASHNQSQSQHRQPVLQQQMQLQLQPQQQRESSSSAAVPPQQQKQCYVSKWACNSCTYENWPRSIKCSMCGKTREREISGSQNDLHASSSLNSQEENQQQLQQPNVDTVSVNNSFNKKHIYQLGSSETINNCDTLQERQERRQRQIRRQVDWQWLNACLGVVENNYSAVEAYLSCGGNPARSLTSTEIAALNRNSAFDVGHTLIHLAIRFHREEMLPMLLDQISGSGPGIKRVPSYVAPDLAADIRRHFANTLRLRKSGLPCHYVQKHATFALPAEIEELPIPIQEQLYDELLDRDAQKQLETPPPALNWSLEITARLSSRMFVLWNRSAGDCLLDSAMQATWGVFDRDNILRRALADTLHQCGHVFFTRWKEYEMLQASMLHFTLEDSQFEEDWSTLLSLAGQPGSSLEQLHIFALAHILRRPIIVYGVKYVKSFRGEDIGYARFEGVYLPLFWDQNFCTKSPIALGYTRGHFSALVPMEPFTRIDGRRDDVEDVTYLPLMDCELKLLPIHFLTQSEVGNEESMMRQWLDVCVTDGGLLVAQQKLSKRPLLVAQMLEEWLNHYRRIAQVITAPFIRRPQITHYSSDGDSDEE
Test: co-IP; S2 cells co-transfected, lysed 48 hrs post-transfection in RIPA buffer; anti-V5 agarose 2 hours at 4°C; washes with 900 mM NaCl then 150 mM NaCl CoIP wash buffer; 10% SDS PAGE, immunoblot with anti-HA
Details: remark: other sources report otherwise

B1: Drosophila TAK1-HA (TGF-beta Activating Kinase 1), Q9V3Q6 1-678 (protein)
chain: MATASLDALQAAYVDFSEITLREKVGHGSYGVVCKAVWRDKLVAVKEFFASAEQKDIEKEVKQLSRVKHPNIIALHGISSYQQATYLIMEFAEGGSLHNFLHGKVKPAYSLAHAMSWARQCAEGLAYLHAMTPKPLIHRDVKPLNLLLTNKGRNLKICDFGTVADKSTMMTNNRGSAAWMAPEVFEGSKYTEKCDIFSWAIVLWEVLSRKQPFKGIDNAYTIQWKIYKGERPPLLTTCPKRIEDLMTACWKTVPEDRPSMQYIVGVMHEIVKDYTGADKALEYTFVNQQIVTKESDGTVAAQPDSLSSQEGELSPSSTQLTPTTAANANVNAIAISKTTTSSMTENTSSTSSDITPTNSGQLDNNPLFYMVTNRWDAIPEEESNESRNDSFNLTSSAEATQRLETIRNGMILMACKPMEQLTLDVEANGFDLSPSESSSSSTNAKSDGRERLTVTDTKPVMMTTDLSNNNGGIHAHSNGLLSHANGWQARDEELQEQEHEQEIVNSLDVDVDPDEDENDGTEQSLAEILDPELQPEPPIPNDAESQLIYRDHRHMAKEYLSVDTNLYYAQDFKDKLIVQMDRTEREQKQELLRKMKDKEGLQSLYNNLQQQYASRQLAAGHHPQPHPHPHPNQLQHPHSHPPMHFLQDEGCGLLPGSVCGGSESVEEGWVVIPPHHNA
With B1 the binding was “binds”.
